Measured values reported in PubChem BioAssay AID493014 (National Center for Advancing Translational Sciences (NCATS), 2011).
Some of the results follow. Shown are side measurements of this screen, not its main read-out; they come without a call. Compounds called inactive in the main read-out are mostly missing here. Potencies come from curve fits of mixed quality, noted in brackets.

Assay: qHTS Assay to Find Inhibitors of Chronic Active B-Cell Receptor Signaling
Settings: ABC-DLBCL IkBa-CBG/CBR reporter, luminescence ratio (green luciferase fused to IkBa over red control in TMD8 lymphoma cells), 4 h
How it was run: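 Doxycycline induced both beetle luciferases in TMD8 lymphoma cells; IKK-driven degradation limits the IkappaBalpha-fused green signal, while red luminescence normalises for cell number and nonspecific effects. Compounds tested up to 46 uM, 4 hrs.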

[1] = measured here: CBR red luminescence, cell number
[2] = measured here: IkBa-CBG green luminescence

| Compound | AC50 [1] | AC50 [2] |
| --- | --- | --- |
| N#Cc1cccc(NC(=O)CNc2cc(S(=O)(=O)N3CCOCC3)ccc2N2CCCC2)c1 | 6.51 µM [rising, single point] |  |
| Cc1nnc(SC2CC(=O)N(c3ccccc3)C2=O)s1 (stereo not drawn) | 18.4 µM [falling, single point] | 23.1 µM [rising, partial curve, poor fit] |
| Cn1c(=O)c2c(nc3sccn32)n(C)c1=O |  | 23.1 µM [rising, single point] |
| COC(=O)Nc1ccc(S(=O)(=O)N2c3ccccc3CCC2C)cc1 (stereo not drawn) | 22.4 µM [falling, single point] |  |
| CCOC(=O)Cc1csc(NC(=O)COc2ccc(C)cc2)n1 | 0.562 µM [falling, full curve, poor fit] |  |
| CCCCOC(=O)c1ccc(NC(=O)Nc2ccc(OC)c(OC)c2)cc1 | 14.6 µM [falling, partial curve, poor fit] |  |
| COc1ccc(/C=N/NC(=O)CSCc2ccc([N+](=O)[O-])cc2)cc1OC | 29.1 µM [rising, single point] |  |
| COc1ccc(CC(=O)Nc2ccc(-c3cn4ccccc4n3)cc2)cc1OC | 29.1 µM [rising, single point] |  |
| CCCCN(Cc1ccco1)C(=O)c1cc2c(=O)[nH]c3ccc(C)cc3c2s1 | 2.06 µM [falling, full curve, poor fit] |  |
| CCOc1cc(/C=N/Nc2nn3cnnc3c3ccccc23)ccc1O | 2.24 µM [falling, full curve] |  |
| O=C(C1CC1)N(Cc1ccco1)c1nc(-c2ccccc2)cs1 | 23.1 µM [rising, partial curve, poor fit] |  |
| Clc1ccccc1-c1nc2ccccc2[nH]1 | 8.91 µM [falling, partial curve, poor fit] |  |
| COc1ccccc1OCCNC(=O)C(c1ccccc1)c1ccccc1 | 25.1 µM [falling, partial curve, poor fit] |  |
| C/C(=N\Nc1nc(C(=O)O)cs1)c1ccccc1 | 25.1 µM [falling, single point] |  |
| CC1CCCN(C(=O)COC(=O)c2cc([N+](=O)[O-])ccc2N2CCOCC2)C1 (stereo not drawn) | 23.1 µM [rising, single point] |  |
| Cc1cc(Cl)ccc1OCC(=O)NCc1ccncc1 | 2 µM [rising, partial curve, poor fit] |  |
| Cc1ccc(C2OCC3(CO)COC(c4ccc(C)cc4)N23)cc1 (stereo not drawn) | 0.184 µM [rising, partial curve, poor fit] | 8.2 µM [falling, partial curve, poor fit] |
| CCOc1ccc(C(=O)NCC(=O)OCC(=O)Nc2ccccc2OC)cc1 | 29.1 µM [rising, single point] |  |
| Cc1ccc(C(=O)COC(=O)c2cccc(O)c2)s1 | 20.6 µM [falling, partial curve, poor fit] |  |
| CC(C)c1ccc(NC(=O)C2=NNC(=O)CC2)cc1 | 6.31 µM [rising, single point] |  |
| Fc1ccc(Nc2ncnc3ccccc23)cc1 | 3.16 µM [falling, full curve] |  |

| Compound | AC50 [1] | AC50 [2] |
| --- | --- | --- |
| O=C(/C=C/c1cn(-c2ccccc2)nc1-c1cccnc1)N1CCCC1 | 10 µM [falling, partial curve, poor fit] |  |
| C=CCSc1nnc(NC(=O)CCN2C(=O)C3CC=CCC3C2=O)s1 (stereo not drawn) | 29.1 µM [rising, single point] |  |
| COc1cc(/C=N/Nc2nc3ccccc3s2)cc([N+](=O)[O-])c1O | 5.01 µM [falling, full curve, poor fit] |  |
| CCSc1nnc(-c2ccccc2N=Cc2c(C)[nH]n(-c3ccccc3)c2=O)c(=O)[nH]1 | 18.4 µM [falling, partial curve, poor fit] |  |
| Cc1cccc(NC(=O)c2onc3c2CCCC3)c1C | 0.2 µM [falling, full curve, poor fit] |  |
| Oc1ccc(/C=N/Nc2ccc(C(F)(F)F)cn2)cc1O | 15.8 µM [falling, single point] |  |
| CCOc1cc(C(=O)O/N=C(\N)c2ccc([N+](=O)[O-])cc2)cc(OCC)c1OCC | 35.5 µM [rising, single point] |  |
| CC(=O)Oc1ccc2c(=O)oc(-c3ccccc3)nc2c1 | 0.447 µM [falling, full curve] |  |
| Cc1ccc(C2C(C#N)=C(N)SC(N)=C2C#N)c(C)c1 | 35.5 µM [falling, single point] |  |
| CCc1ccccc1NC(=S)N=Nc1c(O)n(C)c2ccc(S(=O)(=O)N3CCOCC3)cc12 |  | 20.6 µM [falling, partial curve] |
| Cc1cccc(-n2c(O)c(C=Nc3ccc4c(c3)OCO4)c3ccccc3c2=O)n1 | 17.8 µM [rising, partial curve, poor fit] |  |
| CCCSc1ccc2nc(-c3ccccc3)cn2c1 | 2.06 µM [falling, full curve] |  |
| O=C(CCS(=O)(=O)c1cccs1)Nc1ccc(C(=O)NCc2ccc(F)cc2)cc1 | 6.51 µM [rising, full curve, poor fit] |  |
| COc1cccc(N/C=C/C(=O)c2ccc(OC)c(OC)c2)c1 | 35.5 µM [falling, single point] |  |
| COc1ccc(C(=O)N2CCC(n3nccc3NC(=O)C3CCOC3)CC2)cc1 (stereo not drawn) | 0.891 µM [rising, full curve, poor fit] |  |
| CCN(CC)c1ccc(/C=N/Nc2cccc(C)c2)c(O)c1 | 29.1 µM [rising, single point] |  |
| CC1(C)Cc2c(c(-c3ccco3)[nH]c(=O)c2C#N)CO1 |  | 2.59 µM [rising, full curve, poor fit] |
| Cc1noc(C)c1CSc1ncnc2sc3c(c12)CCC3 | 2 µM [rising, full curve, poor fit] |  |
| COc1ccc(Oc2cccc(Cl)c2CNC(=O)CCCC(=O)O)cc1 | 20 µM [rising, partial curve, poor fit] |  |
| Cc1ccc(-c2noc(CC(c3ccccc3)c3ccccc3)n2)cc1 | 0.146 µM [rising, full curve, poor fit] |  |

Reprinted at random: 2 entries already listed, in no set order.

| Compound | AC50 [1] | AC50 [2] |
| --- | --- | --- |
| COc1ccc(C(=O)N2CCC(n3nccc3NC(=O)C3CCOC3)CC2)cc1 (stereo not drawn) | 0.891 µM [rising, full curve, poor fit] |  |
| Cc1ccc(-c2noc(CC(c3ccccc3)c3ccccc3)n2)cc1 | 0.146 µM [rising, full curve, poor fit] |  |
